Values of other authors, collected in patent publication US20070212428A1, “METHODS AND COMPOSITIONS FOR TREATING MOOD DISORDER” (MOOD MANAGEMENT SCIENCES, INC., priority 2004, published 2007).
Where a name gives a salt, the structure may show the parent alone. For some of these results: At least one compound was matched to its structure with a doubt left. Some results were stated once for a whole list of compounds, not compound by compound.

Legend:
anxiety and depression = details: human, in vivo; cited from earlier work
[1] = repeated dosing; cited from earlier work
bipolar I patients = details: maintenance treatment over eighteen months; cited from earlier work

Which “time to clinical effect” value (anxiety and depression) does the source give for `CN(C)CCCC1(c2ccc(F)cc2)OCc2cc(C#N)ccc21` (racemic) [citalopram, (±)-1-[3-(dimethylamino)propyl]-1-(4-fluorophenyl)-1,3-dihydro-5-isobenzofuran carbonitrile, hydrobromide] here?
The value was “one to two weeks”.

With `COc1ccc(C(CN(C)C)C2(O)CCCCC2)cc1.Cl` (racemic) [venlafaxine, (R/S)-1-[2-(dimethylamino)-1-(4-methoxyphenyl)ethyl] cyclohexanol hydrochloride] as the compound, how does the “time to steady state plasma concentrations” value [1] read?
The value was at most 3 days.

Which results are given for `[Li]` [lithium]?
mood pole against which predominantly effective (bipolar I patients): predominantly effective against mania; prevention of mood episodes compared with placebo (bipolar I patients): superior to placebo
